# Data from patent publication US5326786A, “5,6,7,9-tetrahydro-1,2,3-trimethoxy-9-oxobenzo[alpha]heptalene derivative and pharmaceutical use” (Ohgen Research Laboratories Ltd., priority 1992, dated 1994).
# What was measured:
# [1] = tested on: p388/S mouse leukemic cells; assay: In vitro cancer cell proliferation inhibiting test (1); format: cell-based; details: 48 h, read-out: IC50 (50% proliferation inhibitory concentration), p388/S
# Description: (§1) (1) 10^6 each of mouse leukemic cells p388/S and adriamycin-resistant mouse leukemic cells p388/ADR are suspended in RPMI 1640 media each containing 10% fetal bovine serum, respectively, and cultured for 2 days in the presence of a test compound (this was used after it was dissolved in dimethylsulfoxide to 1 mg/ml and the solution was diluted with a phosphate buffer). The influence of the test compound on cell proliferation was investigated, and 50% proliferation inhibitory concentration:IC50 value (μg/ml) was determined.
# [2] = tested on: adriamycin-resistant mouse leukemic cells p388/ADR; assay: as above; format: cell-based; details: 48 h, read-out: IC50 (50% proliferation inhibitory concentration), P388/ADR
# Description: as §1
compound,measurement,setting,value
"COc1cc2c(c(OC)c1OC)-c1ccc(OC)c(=O)cc1[C@@H](NC(C)=O)CC2 [Colchicine, colchicine, reference compound]",IC50,[1],0.0041 µg/mL
same,IC50,[2],0.48 µg/mL
